Assay results taken from publication doi:10.1101/551317.
Results are given in words; binding and its absence hold for the method and conditions named. Where a sequence is shown, tags or fusion partners need not be part of it.

Sequences of proteins named here, by UniProt entry; tags and fusion partners are left off.
UniProt Q6Q1P4: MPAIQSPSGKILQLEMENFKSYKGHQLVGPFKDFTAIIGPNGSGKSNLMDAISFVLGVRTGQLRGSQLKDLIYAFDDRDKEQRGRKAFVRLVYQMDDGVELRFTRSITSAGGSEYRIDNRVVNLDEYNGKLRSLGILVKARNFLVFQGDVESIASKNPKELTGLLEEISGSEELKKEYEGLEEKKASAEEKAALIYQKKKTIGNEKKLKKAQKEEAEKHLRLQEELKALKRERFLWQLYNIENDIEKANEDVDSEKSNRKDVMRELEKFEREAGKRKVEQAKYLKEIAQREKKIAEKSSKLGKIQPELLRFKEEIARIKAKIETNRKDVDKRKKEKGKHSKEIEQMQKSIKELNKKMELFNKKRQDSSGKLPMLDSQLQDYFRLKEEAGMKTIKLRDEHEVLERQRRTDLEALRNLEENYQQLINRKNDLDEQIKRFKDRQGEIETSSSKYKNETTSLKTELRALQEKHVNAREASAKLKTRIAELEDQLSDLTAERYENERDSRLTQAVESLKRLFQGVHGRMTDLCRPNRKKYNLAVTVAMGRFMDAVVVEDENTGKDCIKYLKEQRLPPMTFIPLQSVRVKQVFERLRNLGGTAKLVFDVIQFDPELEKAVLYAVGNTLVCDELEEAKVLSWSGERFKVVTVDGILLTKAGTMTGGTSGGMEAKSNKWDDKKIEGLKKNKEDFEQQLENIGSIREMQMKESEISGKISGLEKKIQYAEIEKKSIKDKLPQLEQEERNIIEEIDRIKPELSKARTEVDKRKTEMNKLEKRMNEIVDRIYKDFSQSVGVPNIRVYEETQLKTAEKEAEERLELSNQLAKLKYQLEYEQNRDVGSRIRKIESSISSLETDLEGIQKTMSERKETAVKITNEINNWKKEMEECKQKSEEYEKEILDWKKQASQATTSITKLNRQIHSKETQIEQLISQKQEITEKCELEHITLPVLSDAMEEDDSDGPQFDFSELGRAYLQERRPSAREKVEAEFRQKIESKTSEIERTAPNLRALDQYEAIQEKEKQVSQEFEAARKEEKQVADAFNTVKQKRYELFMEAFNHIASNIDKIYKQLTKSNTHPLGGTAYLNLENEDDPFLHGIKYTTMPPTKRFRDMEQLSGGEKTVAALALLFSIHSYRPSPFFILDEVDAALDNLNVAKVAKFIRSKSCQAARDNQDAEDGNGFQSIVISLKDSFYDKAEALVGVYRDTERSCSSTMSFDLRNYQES

Columns and labels:
Test in all cases: two-hybrid
[1] = molecular target: SMC1, yeast two-hybrid fusion (Arabidopsis thaliana) (UniProt Q6Q1P4)
[2] = molecular target: T1, REC8, yeast two-hybrid fusion (Arabidopsis thaliana) (UniProt Q9S7T7)
T1 sequence: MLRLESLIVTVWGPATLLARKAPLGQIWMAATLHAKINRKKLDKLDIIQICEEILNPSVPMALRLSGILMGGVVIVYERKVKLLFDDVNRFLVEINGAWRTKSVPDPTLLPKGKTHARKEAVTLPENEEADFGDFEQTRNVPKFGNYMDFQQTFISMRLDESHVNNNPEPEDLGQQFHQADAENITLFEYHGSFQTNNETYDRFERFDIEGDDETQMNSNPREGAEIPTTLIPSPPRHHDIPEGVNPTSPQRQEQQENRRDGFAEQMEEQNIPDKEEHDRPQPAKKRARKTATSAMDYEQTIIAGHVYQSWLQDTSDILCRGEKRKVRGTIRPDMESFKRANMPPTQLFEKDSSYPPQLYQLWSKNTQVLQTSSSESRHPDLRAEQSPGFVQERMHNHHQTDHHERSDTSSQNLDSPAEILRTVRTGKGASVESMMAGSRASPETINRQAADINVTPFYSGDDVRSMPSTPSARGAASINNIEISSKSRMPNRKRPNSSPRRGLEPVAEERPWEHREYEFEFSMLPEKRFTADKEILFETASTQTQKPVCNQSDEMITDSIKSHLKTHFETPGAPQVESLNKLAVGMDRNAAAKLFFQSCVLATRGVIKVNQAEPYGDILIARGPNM

[3] = molecular target: T2, SMC3, yeast two-hybrid fusion (Arabidopsis thaliana) (UniProt Q56YN8)
T2 sequence: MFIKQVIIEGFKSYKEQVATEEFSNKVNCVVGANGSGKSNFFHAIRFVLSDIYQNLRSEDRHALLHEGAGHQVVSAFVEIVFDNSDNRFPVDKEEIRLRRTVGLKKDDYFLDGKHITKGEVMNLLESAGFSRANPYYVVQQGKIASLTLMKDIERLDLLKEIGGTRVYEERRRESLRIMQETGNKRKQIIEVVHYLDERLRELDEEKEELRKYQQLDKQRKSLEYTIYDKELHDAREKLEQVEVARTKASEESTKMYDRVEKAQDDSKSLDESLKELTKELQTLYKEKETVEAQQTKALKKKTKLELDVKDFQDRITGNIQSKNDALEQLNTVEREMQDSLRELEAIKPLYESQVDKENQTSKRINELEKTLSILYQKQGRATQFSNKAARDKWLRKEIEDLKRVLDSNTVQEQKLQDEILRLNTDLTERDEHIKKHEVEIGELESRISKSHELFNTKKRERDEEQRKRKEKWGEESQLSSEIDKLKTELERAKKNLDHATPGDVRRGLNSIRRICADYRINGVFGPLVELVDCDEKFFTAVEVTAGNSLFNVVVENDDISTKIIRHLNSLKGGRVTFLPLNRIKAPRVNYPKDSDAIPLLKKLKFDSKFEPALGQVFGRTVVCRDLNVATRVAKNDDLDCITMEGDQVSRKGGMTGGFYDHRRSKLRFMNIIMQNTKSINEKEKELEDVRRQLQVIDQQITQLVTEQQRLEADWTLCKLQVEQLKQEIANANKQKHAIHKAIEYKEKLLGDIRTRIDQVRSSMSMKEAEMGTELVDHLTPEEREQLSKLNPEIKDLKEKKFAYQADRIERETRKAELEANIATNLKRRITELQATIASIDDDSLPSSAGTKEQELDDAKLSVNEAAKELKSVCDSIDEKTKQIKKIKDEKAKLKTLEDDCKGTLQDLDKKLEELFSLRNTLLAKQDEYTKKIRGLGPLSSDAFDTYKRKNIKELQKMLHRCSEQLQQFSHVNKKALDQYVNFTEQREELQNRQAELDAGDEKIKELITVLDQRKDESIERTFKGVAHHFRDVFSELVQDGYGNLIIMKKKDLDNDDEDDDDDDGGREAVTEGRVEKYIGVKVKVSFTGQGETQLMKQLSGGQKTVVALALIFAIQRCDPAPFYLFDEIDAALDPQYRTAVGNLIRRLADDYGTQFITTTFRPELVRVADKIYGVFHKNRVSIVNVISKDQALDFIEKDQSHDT

Measured: binding

B1: SWITCH 1/DYAD (SWI1), yeast two-hybrid fusion (protein, UniProt Q9FGN8 1-639)
chain: MSSTMFVKRNPIRETTAGKISSPSSPTLNVAVAHIRAGSYYEIDASILPQRSPENLKSIRVVMVSKITASDVSLRYPSMFSLRSHFDYSRMNRNKPMKKRSGGGLLPVFDESHVMASELAGDLLYRRIAPHELSMNRNSWGFWVSSSSRRNKFPRREVVSQPAYNTRLCRAASPEGKCSSELKSGGMIKWGRRLRVQYQSRHIDTRKNKEGEESSRVKDEVYKEEEMEKEEDDDDGNEIGGTKQEAKEITNGNRKRKLIESSTERLAQKAKVYDQKKETQIVVYKRKSERKFIDRWSVERYKLAERNMLKVMKEKNAVFGNSILRPELRSEARKLIGDTGLLDHLLKHMAGKVAPGGQDRFMRKHNADGAMEYWLESSDLIHIRKEAGVKDPYWTPPPGWKLGDNPSQDPVCAGEIRDIREELASLKRELKKLASKKEEEELVIMTTPNSCVTSQNDNLMTPAKEIYADLLKKKYKIEDQLVIIGETLRKMEEDMGWLKKTVDENYPKKPDSTETPLLLEDSPPIQTLEGEVKVVNKGNQITESPQNREKGRKHDQQERSPLSLISNTGFRICRPVGMFAWPQLPALAAATDTNASSPSHRQAYPSPFPVKPLAAKRPLGLTFPFTIIPEEAPKNLFNV
no binding: [1] | [2] | [3]
